These results are taken from patent US20050261472A1 (Dyax Corp., priority 1999, published 2005).

The nature of the series: general procedure: Fmoc solid-phase peptide synthesis; rink-amide AM resin, 0.8 mmol/g; DIC/HOBt (preformed OBt esters), then HBTU/DIEA (double coupling). The note with it: whole synthesis, overall, based on the starting resin substitution level, scale of the general procedure 0.3-0.6 g of resin, one disulfide bridge, sequence written open.

Regarding “Leu-Pro-Cys-Asp-Tyr-Tyr-Gly-Thr-Cys-Leu-Asp”, the isolated yield is on record as 4%.
